Assay results published in PubChem BioAssay AID248 (DTP/NCI, 2004).
The list shows only some results of the screen, not a fair sample: it gathers tests that were run many times, whatever their T/C, doses with no T/C, and many T/C values between a quarter and a half above the control. Other doses and runs of a compound stand elsewhere. T/C gives the treated animals as a percentage of the vehicle group. Some doses have a count of surviving animals in place of a T/C: the source holds a T/C of zero for them, seemingly a mark for toxic or unscored doses. Some survivor counts are full or nearly so, which does not show that the dose was tolerated: the source hardly ever lists a survival T/C far under the control, and the zero likely stands for such cases as well. Survivors were counted at the toxicity check, usually on the fifth day, unless a day is given; later deaths do not show. Schedules are NCI's codes, read here as Q, the interval in days (D) or hours (H), X, the number of doses. Some entries were tested several times; the results are listed from low to high. Some schedule codes hold Z or #, which are not explained here. Where survival is the endpoint, the PubChem record calls one and a half times the control and up active, and a quarter to a half above the control has no call in these data; cut-offs in other NCI protocols can differ.

Test system: L1210 leukemia ip in BDF1 mice, survival T/C
Assay: NCI In Vivo Anticancer Drug Screen. Data for tumor model L1210 Leukemia (intraperitoneal) in B6D2F1 (BDF1) mice
Details: higher T/C = longer survival
[1] = T/C endpoint: mean survival time, dose: 400.0 mg/kg/injection, schedule: Q04DX003 (ip), vehicle: saline
[2] = T/C endpoint: mean survival time, dose: 100.0 mg/kg/injection, schedule: Q01DX009 (ip), vehicle: saline
[3] = T/C endpoint: mean survival time, dose: 400.0 mg/kg/injection, schedule: Q01DX009 (ip), vehicle: saline
[4] = T/C endpoint: mean survival time, dose: 300.0 mg/kg/injection, schedule: Q01DX001 (ip), vehicle: saline
[5] = T/C endpoint: mean survival time, dose: 50.0 mg/kg/injection, schedule: Q01DX009 (ip), vehicle: saline with Tween-80
[6] = T/C endpoint: mean survival time, dose: 100.0 mg/kg/injection, schedule: Q01DX009 (ip), vehicle: saline with Tween-80
[7] = T/C endpoint: mean survival time, dose: 200.0 mg/kg/injection, schedule: Q04DX003 (ip), vehicle: saline with Tween-80
[8] = T/C endpoint: mean survival time, dose: 400.0 mg/kg/injection, schedule: Q01DX009 (ip), vehicle: saline with Tween-80
[9] = T/C endpoint: mean survival time, dose: 200.0 mg/kg/injection, schedule: Q04DX002 (ip), vehicle: Klucel (hydroxypropylcellulose) (HPC)
[10] = T/C endpoint: mean survival time, dose: 400.0 mg/kg/injection, schedule: Q04DX003 (ip), vehicle: Klucel (hydroxypropylcellulose) (HPC)
[11] = T/C endpoint: mean survival time, dose: 400.0 mg/kg/injection, schedule: Q04DX002 (ip), vehicle: Klucel (hydroxypropylcellulose) (HPC)
[12] = T/C endpoint: mean survival time, dose: 400.0 mg/kg/injection, schedule: Q01DX009 (ip), vehicle: water
[13] = T/C endpoint: mean survival time, dose: 400.0 mg/kg/injection, schedule: Q01DX001 (ip), vehicle: saline
[14] = T/C endpoint: mean survival time, dose: 200.0 mg/kg/injection, schedule: Q01DX009 (ip), vehicle: saline with Tween-80
[15] = T/C endpoint: mean survival time, dose: 200.0 mg/kg/injection, schedule: Q01DX001 (ip), vehicle: saline

Question: How did the T/C (T/C endpoint: mean survival time, dose: 1.25 mg/kg/injection, schedule: Q01DX009 (ip), vehicle: saline) turn out when `NC(=O)c1[nH]nc(C2OC(CO)C(O)C2O)c1O` (stereo unspecified) was run?
Answer: 135 % of control

Question: And the T/C (T/C endpoint: mean survival time, dose: 2.5 mg/kg/injection, schedule: Q04DX003 (ip), vehicle: saline)?
Answer: 129 % of control

Question: What about the survivor count (T/C endpoint: mean survival time, dose: 10.0 mg/kg/injection, schedule: Q01DX009 (ip), vehicle: saline) of the same molecule?
Answer: 6 of 6

Question: And the T/C (T/C endpoint: mean survival time, dose: 10.0 mg/kg/injection, schedule: Q04DX003 (ip), vehicle: saline)?
Answer: 141 % of control

Question: And the T/C (T/C endpoint: mean survival time, dose: 15.0 mg/kg/injection, schedule: Q04DX003 (ip), vehicle: saline)?
Answer: 129 % of control

Question: And the T/C (T/C endpoint: median survival time, dose: 16.0 mg/kg/injection, schedule: Q04DX003 (ip), vehicle: saline, evaluated on day 5)?
Answer: 139 % of control

Question: What about the T/C (T/C endpoint: median survival time, dose: 16.0 mg/kg/injection, schedule: Q04DX003 (ip), vehicle: saline, evaluated on day 8) of the same molecule?
Answer: 128 % of control

Question: `O=c1[nH]c2ccsc2c(=O)n1O` was tested. Which survivor count [1] did it give?
Answer: 5 of 6

Question: `CCCCCCCCCCCCCCCCCC[N+](C)(C)Cc1cc(=O)c(O)co1` was tested. Which survivor count (T/C endpoint: mean survival time, dose: 25.0 mg/kg/injection, schedule: Q01DX009 (ip), vehicle: saline) did it give?
Answer: 3 of 3

Question: What about the survivor count (T/C endpoint: mean survival time, dose: 50.0 mg/kg/injection, schedule: Q01DX009 (ip), vehicle: saline) of the same molecule?
Answer: 2 of 3

Question: And the survivor count [2]?
Answer: 0 of 3 and 3 of 6

Question: And the survivor count (T/C endpoint: mean survival time, dose: 200.0 mg/kg/injection, schedule: Q01DX009 (ip), vehicle: saline)?
Answer: 0 of 6

Question: What about the survivor count [3] of the same molecule?
Answer: 0 of 6

Question: How did the survivor count (T/C endpoint: mean survival time, dose: 75.0 mg/kg/injection, schedule: Q01DX001 (ip), vehicle: saline) turn out when `O=C(Nc1ccc(S(=O)(=O)Nc2ccc(N=Nc3ccc(N=Nc4ccccc4)cc3)cc2)cc1)C(N1CC1)(N1CC1)N1CC1` was run?
Answer: 1 of 6

Question: What about the survivor count (T/C endpoint: mean survival time, dose: 150.0 mg/kg/injection, schedule: Q01DX001 (ip), vehicle: saline) of the same molecule?
Answer: 0 of 6

Question: What about the survivor count [4] of the same molecule?
Answer: 0 of 6

Question: How did the survivor count (T/C endpoint: mean survival time, dose: 200.0 mg/kg/injection, schedule: Q01DX009 (ip), vehicle: gum acacia) turn out when `Cc1cccc(C)c1NC(=O)Nc1cccc2ccccc12` was run?
Answer: 6 of 6

Question: For `O=C(CC1(Cl)C(F)(F)C(F)(F)C1(F)F)c1ccccc1`, which survivor count [5] is on record?
Answer: 0 of 6

Question: What about the survivor count [6] of the same molecule?
Answer: 0 of 6

Question: For `CCCC[n+]1cc(C(N)=O)cc2ccccc21`, which survivor count [4] is on record?
Answer: 0 of 6

Question: How did the survivor count [7] turn out when `COc1ccc(C2C3C=CC(C3)C2C(=O)O)cc1` (stereo unspecified) was run?
Answer: 6 of 6

Question: What does the source list for `O=C(O)c1cc(OCc2ccccc2)cc(OCc2ccccc2)c1`?
Answer: survivor count (T/C endpoint: mean survival time, dose: 200.0 mg/kg/injection, schedule: Q01DX009 (ip), vehicle: carboxymethylcellulose (CMC)): 3 of 3; survivor count (T/C endpoint: mean survival time, dose: 400.0 mg/kg/injection, schedule: Q01DX009 (ip), vehicle: carboxymethylcellulose (CMC)): 3 of 3

Question: With `COc1ccc2ccccc2n1` as the molecule, how does the survivor count [8] read?
Answer: 5 of 6

Question: And the survivor count (T/C endpoint: mean survival time, dose: 400.0 mg/kg/injection, schedule: Q04DX003 (ip), vehicle: saline with Tween-80)?
Answer: 3 of 6

Question: Which results are given for `O=C(O)C(Oc1ccc(Cl)cc1Cl)C(Oc1ccc(Cl)cc1Cl)C(=O)O` (stereo unspecified)?
Answer: T/C (T/C endpoint: mean survival time, dose: 100.0 mg/kg/injection, schedule: Q04DX002 (ip), vehicle: Klucel (hydroxypropylcellulose) (HPC)): 144 % of control; T/C [9]: 136 % of control

Question: `CNC(=O)N1CC(C)OC(C)C1` (stereo unspecified) was tested. Which survivor count [2] did it give?
Answer: 6 of 6

Question: Which results are given for `NS(=O)(=O)c1cccc([N+](=O)[O-])c1`?
Answer: survivor count (T/C endpoint: mean survival time, dose: 200.0 mg/kg/injection, schedule: Q04DX003 (ip), vehicle: Klucel (hydroxypropylcellulose) (HPC)): 5 of 6; survivor count [10]: 2 of 6

Question: What does the source list for `C/C(=N\O)C(C)(C)C`?
Answer: survivor count [9]: 3 of 3; survivor count [11]: 3 of 3

Question: `CC(NC(=O)OCc1ccccc1)C(=O)NC(Cc1ccccc1)C(=O)OCc1ccccc1` (stereo unspecified) was tested. Which survivor count [7] did it give?
Answer: 6 of 6

Question: Which results are given for `CC(C)(C)NNC(C)(C)C`?
Answer: survivor count (T/C endpoint: mean survival time, dose: 75.0 mg/kg/injection, schedule: Q01DX001 (ip), vehicle: other): 2 of 6; survivor count (T/C endpoint: mean survival time, dose: 150.0 mg/kg/injection, schedule: Q01DX001 (ip), vehicle: other): 0 of 6; survivor count (T/C endpoint: mean survival time, dose: 300.0 mg/kg/injection, schedule: Q01DX001 (ip), vehicle: other): 0 of 6

Question: Which survivor count (T/C endpoint: mean survival time, dose: 100.0 mg/kg/injection, schedule: Q01DX009 (ip), vehicle: water) does the source give for `O=c1[nH]c2nccnc2[nH]1` here?
Answer: 3 of 6

Question: And the survivor count [12]?
Answer: 2 of 6

Question: How did the survivor count [10] turn out when `COc1cc(/C=C2\CCC/C(=C\c3ccc(O)c(OC)c3)C2=O)ccc1O` was run?
Answer: 6 of 6

Question: Which survivor count [10] does the source give for `O=C(Nc1ccccc1)Nc1nccs1` here?
Answer: 1 of 6

Question: Which survivor count [4] does the source give for `CC[N+](C)(C)CC(C)C` here?
Answer: 1 of 6

Question: With `CC(CCCN(CCCl)CCCl)Nc1ccnc2cc(Cl)ccc12` (stereo unspecified) as the molecule, how does the survivor count (T/C endpoint: mean survival time, dose: 20.0 mg/kg/injection, schedule: Q01DX001 (ip), vehicle: saline) read?
Answer: 1 of 6

Question: What about the survivor count (T/C endpoint: mean survival time, dose: 40.0 mg/kg/injection, schedule: Q01DX001 (ip), vehicle: saline) of the same molecule?
Answer: 0 of 6

Question: What about the survivor count (T/C endpoint: mean survival time, dose: 80.0 mg/kg/injection, schedule: Q01DX001 (ip), vehicle: saline) of the same molecule?
Answer: 0 of 6

Question: Which survivor count [1] does the source give for `CC1C(C)(C)P(=O)(OCCOP2(=O)C(C)(C)C(C)C2(C)C)C1(C)C` (stereo unspecified) here?
Answer: 1 of 4

Question: Which survivor count [13] does the source give for `CC1(C)N=C(N)N=C(N)N1c1cccc(CO)c1` here?
Answer: 0 of 3

Question: `CNC(=O)Nc1ccc(Cl)cn1` was tested. Which survivor count [14] did it give?
Answer: 2 of 6

Question: And the survivor count [8]?
Answer: 0 of 6

Question: For `O=C1C=CC(=O)C2C3C=CC(C3)C12` (stereo unspecified), which survivor count (T/C endpoint: mean survival time, dose: 200.0 mg/kg/injection, schedule: Q01DX009 (ip), vehicle: Klucel (hydroxypropylcellulose) (HPC)) is on record?
Answer: 0 of 6

Question: And the survivor count (T/C endpoint: mean survival time, dose: 400.0 mg/kg/injection, schedule: Q01DX009 (ip), vehicle: Klucel (hydroxypropylcellulose) (HPC))?
Answer: 0 of 6

Question: For `COC(=O)Cc1c[nH]c(=O)[nH]c1=O`, which survivor count [12] is on record?
Answer: 2 of 6

Question: For `CCCCC(=O)N/N=C/c1ccccc1Cl`, which survivor count [13] is on record?
Answer: 1 of 6

Question: `CN(C)C(=Nc1ccc(NC(=O)c2ccc(C(=O)Nc3ccc(N=C(Nc4ccccc4)N(C)C)cc3)cc2)cc1)Nc1ccccc1` was tested. Which survivor count (T/C endpoint: mean survival time, dose: 25.0 mg/kg/injection, schedule: Q01DX Z (ip), vehicle: water) did it give?
Answer: 0 of 6

Question: And the survivor count (T/C endpoint: mean survival time, dose: 50.0 mg/kg/injection, schedule: Q01DX Z (ip), vehicle: water)?
Answer: 0 of 6

Question: And the survivor count (T/C endpoint: mean survival time, dose: 100.0 mg/kg/injection, schedule: Q01DX Z (ip), vehicle: water)?
Answer: 0 of 6

Question: `OCC1C2CCC(C2)C1CO` (stereo unspecified) was tested. Which survivor count [6] did it give?
Answer: 2 of 6

Question: And the survivor count [14]?
Answer: 0 of 6

Question: Which results are given for `Cc1[nH]c2cc(O)c(O)c(C)c2c1C`?
Answer: survivor count [15]: 0 of 4; survivor count [13]: 1 of 4

Question: Which results are given for `Cc1ccc(C(C)C)c(OCC(O)CN2CC=CCC2)c1` (stereo unspecified)?
Answer: survivor count (T/C endpoint: mean survival time, dose: 200.0 mg/kg/injection, schedule: Q04DX003 (ip), vehicle: saline): 1 of 6; survivor count [1]: 0 of 6

Question: For `Nc1ccc(S(=O)(=O)NCc2nccs2)cc1`, which survivor count (T/C endpoint: mean survival time, dose: 100.0 mg/kg/injection, schedule: Q01DX001 (ip), vehicle: saline) is on record?
Answer: 2 of 6

Question: And the survivor count [15]?
Answer: 0 of 6

Question: And the survivor count [13]?
Answer: 0 of 6

Question: What does the source list for `CCOC(=S)SCCC(=O)O`?
Answer: survivor count [5]: 5 of 6; survivor count [14]: 3 of 6

Question: What does the source list for `NC(=O)C1C(=O)c2cccc3c2C1(Br)C(Br)CCC3` (stereo unspecified)?
Answer: survivor count [15]: 0 of 4; survivor count [13]: 0 of 4

Question: Which survivor count [3] does the source give for `C/C(=N/N(C)C)c1ccc([N+](=O)[O-])cc1` here?
Answer: 3 of 6

Question: How did the survivor count [9] turn out when `NNC(=O)CSSCC(=O)NN` was run?
Answer: 0 of 3

Question: And the survivor count [11]?
Answer: 0 of 3
